This experiment has as its target Arabis mosaic virus isolate S (Arabis mosaic virus, isolate S). Briefly: DAS-ELISA: virus captured by anti-ArMV polyclonals, StrepII tagged Nb23 as detection antibody.

Results are given in words; binding and its absence hold for the method and conditions named. Where a sequence is shown, tags or fusion partners need not be part of it.

B1: StrepII tagged Nb23 (VHH, not shown: small tags and cut ends)
VHH: QVQLQESGGGSVQVGGSLRVACAASGDTFSGYLAAWFRQAPGKGREGVAAINSKRHTTSYADSVKGRFTISKDNADNIMYLEMNSLKPEDTAIYYCAAADAIGLAEYWSTPTLSAARYKYWGQGTQVTVSS
For the molecule B1, the binding entry is “no binding (tested: 1 µg/ml)”.
